Laboratory results reported in article doi:10.1101/2022.06.02.494603.
No constants are given. Whether binding was seen depends on the method and setting. In cells and extracts the contact can be indirect. Some results given as binding are weak or reduced against the parent protein; the word gives no strength. Sequences can lack the tags named with a protein.

Amino acid sequences for entries named in this document (tags omitted).
UniProt Q96CV9: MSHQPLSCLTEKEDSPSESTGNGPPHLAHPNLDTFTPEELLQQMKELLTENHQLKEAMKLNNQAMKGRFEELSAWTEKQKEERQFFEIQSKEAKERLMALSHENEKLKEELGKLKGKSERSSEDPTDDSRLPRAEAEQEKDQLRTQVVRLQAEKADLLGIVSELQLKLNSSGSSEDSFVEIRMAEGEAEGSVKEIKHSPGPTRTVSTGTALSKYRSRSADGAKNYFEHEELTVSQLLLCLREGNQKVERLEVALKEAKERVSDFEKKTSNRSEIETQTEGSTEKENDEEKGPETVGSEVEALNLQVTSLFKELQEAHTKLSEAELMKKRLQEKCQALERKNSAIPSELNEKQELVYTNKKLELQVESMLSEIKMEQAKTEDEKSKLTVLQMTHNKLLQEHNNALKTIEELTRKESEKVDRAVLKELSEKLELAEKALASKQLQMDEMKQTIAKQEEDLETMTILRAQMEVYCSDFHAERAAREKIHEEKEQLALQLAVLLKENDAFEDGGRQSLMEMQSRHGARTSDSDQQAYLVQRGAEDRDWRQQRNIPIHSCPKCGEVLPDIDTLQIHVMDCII

Target: optineurin, C-terminal myc-FLAG-tagged (UniProt Q96CV9)
Test: co-IP

B1: TANK-binding kinase 1, wild type, untagged (protein, UniProt Q9UHD2 1-729)
chain: MQSTSNHLWLLSDILGQGATANVFRGRHKKTGDLFAIKVFNNISFLRPVDVQMREFEVLKKLNHKNIVKLFAIEEETTTRHKVLIMEFCPCGSLYTVLEEPSNAYGLPESEFLIVLRDVVGGMNHLRENGIVHRDIKPGNIMRVIGEDGQSVYKLTDFGAARELEDDEQFVSLYGTEEYLHPDMYERAVLRKDHQKKYGATVDLWSIGVTFYHAATGSLPFRPFEGPRRNKEVMYKIITGKPSGAISGVQKAENGPIDWSGDMPVSCSLSRGLQVLLTPVLANILEADQEKCWGFDQFFAETSDILHRMVIHVFSLQQMTAHKIYIHSYNTATIFHELVYKQTKIISSNQELIYEGRRLVLEPGRLAQHFPKTTEENPIFVVSREPLNTIGLIYEKISLPKVHPRYDLDGDASMAKAITGVVCYACRIASTLLLYQELMRKGIRWLIELIKDDYNETVHKKTEVVITLDFCIRNIEKTVKVYEKLMKINLEAAELGEISDIHTKLLRLSSSQGTIETSLQDIDSRLSPGGSLADAWAHQEGTHPKDRNVEKLQVLLNCMTEIYYQFKKDKAERRLAYNEEQIHKFDKQKLYYHATKAMTHFTDECVKKYEAFLNKSEEWIRKMLHLRKQLLSLTNQCFDIEEEVSKYQEYTNELQETLPQKMFTASSGIKHTMTPIYPSSNTLVEMTLGMKKLKEEMEGVVKELAENNHILERFGSLTMDGGLRNVDCL
binding: binds
